# These are yes or no findings as the source states them, for the method shown. In cells and extracts the contact can be indirect. Some binding calls cover weakened binding; strength is not graded here.
# The chains behind the UniProt entries cited, without tags or fusion partners.
# UniProt Q9I4P9: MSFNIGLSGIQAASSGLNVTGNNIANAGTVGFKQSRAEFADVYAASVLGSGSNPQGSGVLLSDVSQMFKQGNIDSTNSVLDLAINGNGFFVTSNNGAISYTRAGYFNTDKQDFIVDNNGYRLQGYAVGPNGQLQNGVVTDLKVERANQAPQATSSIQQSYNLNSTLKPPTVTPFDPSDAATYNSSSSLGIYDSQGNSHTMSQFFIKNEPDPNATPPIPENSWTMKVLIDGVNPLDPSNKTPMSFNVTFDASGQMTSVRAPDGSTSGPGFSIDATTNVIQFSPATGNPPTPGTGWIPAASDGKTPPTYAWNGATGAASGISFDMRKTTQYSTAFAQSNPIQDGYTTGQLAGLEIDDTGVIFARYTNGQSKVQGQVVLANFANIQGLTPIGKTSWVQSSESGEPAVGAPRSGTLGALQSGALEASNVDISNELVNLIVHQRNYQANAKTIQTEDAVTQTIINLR
# UniProt Q03135: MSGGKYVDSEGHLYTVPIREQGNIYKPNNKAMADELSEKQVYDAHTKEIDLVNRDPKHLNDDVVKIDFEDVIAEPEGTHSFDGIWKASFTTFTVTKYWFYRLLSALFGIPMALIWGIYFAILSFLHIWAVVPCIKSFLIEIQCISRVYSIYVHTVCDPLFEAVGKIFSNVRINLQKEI
# Molecular target: recombinant flagellar hook protein FlgE of Pseudomonas aeruginosa PAO1 (Pseudomonas aeruginosa PAO1) (UniProt Q9I4P9)
# Test: pull-down; FlgE- or FlgEM-saturated His-agarose beads incubated with the same amount of HCEC membrane proteins at 4 °C for 8 h; PBS washes; beads boiled in SDS loading buffer; Western blot with anti-CAV1 and anti-His; unconjugated resin as control; only the target purified
substance,measurement,value
Caveolin-1 (from UniProt Q03135 1-178),binding,binds

# Reference: publication PMC5431167
